These are yes or no findings as the source states them, for the method shown. In cells and extracts the contact can be indirect. Some results given as binding are weak or reduced against the parent protein; the word gives no strength.
Target: E2F4, endogenous (human (endogenous in PANC1, MIA PaCa-2, SW1990, PATU8988T)), Q16254
Experiment: co-IP; endogenous proteins, whole-cell lysates of PANC1-Tet-shOFD1 and MIA PaCa-2-Tet-shOFD1 cells, with or without OFD1 knockdown or palbociclib (0.5 μM for 48 h); protein G magnetic beads with antibody overnight, TAP lysis buffer washes
Settings: remark: other sources report otherwise

binding: binds
B1: RBL2, endogenous, Q08999 1-1139 (protein)
chain: MPSGGDQSPPPPPPPPAAAASDEEEEDDGEAEDAAPPAESPTPQIQQRFDELCSRLNMDEAARAEAWDSYRSMSESYTLEGNDLHWLACALYVACRKSVPTVSKGTVEGNYVSLTRILKCSEQSLIEFFNKMKKWEDMANLPPHFRERTERLERNFTVSAVIFKKYEPIFQDIFKYPQEEQPRQQRGRKQRRQPCTVSEIFHFCWVLFIYAKGNFPMISDDLVNSYHLLLCALDLVYGNALQCSNRKELVNPNFKGLSEDFHAKDSKPSSDPPCIIEKLCSLHDGLVLEAKGIKEHFWKPYIRKLYEKKLLKGKEENLTGFLEPGNFGESFKAINKAYEEYVLSVGNLDERIFLGEDAEEEIGTLSRCLNAGSGTETAERVQMKNILQQHFDKSKALRISTPLTGVRYIKENSPCVTPVSTATHSLSRLHTMLTGLRNAPSEKLEQILRTCSRDPTQAIANRLKEMFEIYSQHFQPDEDFSNCAKEIASKHFRFAEMLYYKVLESVIEQEQKRLGDMDLSGILEQDAFHRSLLACCLEVVTFSYKPPGNFPFITEIFDVPLYHFYKVIEVFIRAEDGLCREVVKHLNQIEEQILDHLAWKPESPLWEKIRDNENRVPTCEEVMPPQNLERADEICIAGSPLTPRRVTEVRADTGGLGRSITSPTTLYDRYSSPPASTTRRRLFVENDSPSDGGTPGRMPPQPLVNAVPVQNVSGETVSVTPVPGQTLVTMATATVTANNGQTVTIPVQGIANENGGITFFPVQVNVGGQAQAVTGSIQPLSAQALAGSLSSQQVTGTTLQVPGQVAIQQISPGGQQQKQGQSVTSSSNRPRKTSSLSLFFRKVYHLAAVRLRDLCAKLDISDELRKKIWTCFEFSIIQCPELMMDRHLDQLLMCAIYVMAKVTKEDKSFQNIMRCYRTQPQARSQVYRSVLIKGKRKRRNSGSSDSRSHQNSPTELNKDRTSRDSSPVMRSSSTLPVPQPSSAPPTPTRLTGANSDMEEEERGDLIQFYNNIYIKQIKTFAMKYSQANMDAPPLSPYPFVRTGSPRRIQLSQNHPVYISPHKNETMLSPREKIFYYFSNSPSKRLREINSMIRTGETPTKKRGILLEDGSESPAKRICPENHSALLRRLQDVANDRGSH
